Assay results taken from US20250295801A1, “CD25 ANTIBODIES, ANTIBODY DRUG CONJUGATES, AND USES THEREOF” (Seagen Inc., priority 2024, published 2025).
Substitutions are numbered along the chain they refer to. No constants are given. Whether binding was seen depends on the method and setting. Some results given as binding are weak or reduced against the parent protein; the word gives no strength.

What was measured:
[1] = molecular target: T1, recombinant cynomolgus CD25 (cynomolgus, UniProt H6WS54 22-213); assay: saturation binding ELISA on recombinant cynomolgus CD25
T1 construct: also called cyno CD25; cynomolgus CD25/IL2RA
T1 sequence: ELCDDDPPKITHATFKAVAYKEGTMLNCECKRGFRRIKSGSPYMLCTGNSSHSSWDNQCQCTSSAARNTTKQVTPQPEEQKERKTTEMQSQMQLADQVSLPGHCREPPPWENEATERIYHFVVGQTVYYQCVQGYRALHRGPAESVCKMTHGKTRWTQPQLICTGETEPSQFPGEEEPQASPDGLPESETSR

recombinant human CD25 [2] = molecular target: T2, recombinant human CD25 (human, UniProt P01589 22-213, limits assumed, biotinylated in the Octet kinetic assay (site not stated)); assay: biolayer interferometry (Octet RED384), biotinylated recombinant human CD25 on streptavidin (SAX) tips, antibody in solution
T2 construct: Soluble recombinant antigen; It was coated on plates for ELISA and used as bought biotinylated protein for BLI; The ELISA and BLI reagents may be different constructs; also called hCD25; CD25/IL2RA
T2 sequence: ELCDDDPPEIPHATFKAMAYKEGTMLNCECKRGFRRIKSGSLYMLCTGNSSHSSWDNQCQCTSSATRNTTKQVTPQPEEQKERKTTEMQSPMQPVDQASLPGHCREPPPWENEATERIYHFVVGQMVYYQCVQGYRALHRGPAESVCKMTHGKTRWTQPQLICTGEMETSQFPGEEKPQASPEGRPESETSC

[3] = molecular target: T1, recombinant cynomolgus CD25; assay: ELISA (FIG. 1A)
recombinant human CD25 [4] = molecular target: T2, recombinant human CD25; assay: ELISA (FIG. 1A)
[5] = molecular target: T1, recombinant cynomolgus CD25; assay: saturation binding ELISA on plate-coated recombinant cynomolgus CD25
recombinant human CD25 [6] = molecular target: T2, recombinant human CD25; assay: BLI (Octet RED384), biotinylated hCD25 on SAX tips
recombinant human CD25 [7] = molecular target: T2, recombinant human CD25; assay: saturation binding ELISA on plate-coated recombinant human CD25
recombinant human CD25 [8] = molecular target: T2, recombinant human CD25; assay: saturation binding ELISA on recombinant human CD25
[9] = molecular target: T1, recombinant cynomolgus CD25; assay: saturation binding ELISA on coated recombinant antigen
recombinant human CD25 [10] = molecular target: T2, recombinant human CD25; assay: as above
[11] = molecular target: T1, recombinant cynomolgus CD25; assay: ELISA on plate-coated cynomolgus CD25
[12] = molecular target: recombinant human CD25 (human) (UniProt P01589); assay: saturation binding ELISA on recombinant human CD25 (FIG. 8A, 8B)
[13] = molecular target: recombinant human CD25 (human) (UniProt P01589); assay: saturation binding ELISA on recombinant human CD25
[14] = molecular target: recombinant human CD25 (human) (UniProt P01589); assay: biolayer interferometry (Octet RED384), biotinylated recombinant human CD25 on streptavidin (SAX) tips, antibody in solution
[15] = molecular target: recombinant cynomolgus CD25 (cynomolgus) (UniProt H6WS54); assay: saturation binding ELISA on recombinant cynomolgus CD25
[16] = molecular target: recombinant human CD25 (human) (UniProt P01589); assay: BLI (Octet RED384), biotinylated hCD25 on SAX tips
[17] = molecular target: recombinant human CD25 (human) (UniProt P01589); assay: saturation binding ELISA on recombinant antigen (FIG. 7)
[18] = molecular target: recombinant cynomolgus CD25 (cynomolgus) (UniProt H6WS54); assay: as above
[19] = molecular target: T1, recombinant cynomolgus CD25; assay: ELISA (FIG. 1B)

Measured: binding

B1: CD25 antibody SG25Ab-9 (antibody, human IgG1, lambda, V domains shown)
VH: QVQLVQSGAEVKKPGESLKISCKGSGYSSTSYWIGWVRQMPGKGLEWMGIIYPGDSDTRYSPSFQGQVTISADKSISTAYLQWSSLKASDTAMYYCARLGSYYAFDIWGRGTMVTVSS
VL: QSALTQPASVSASPGQSITISCTGTSSDVGAYIYVSWYQQLSGKPPKLILYDVSKRPSGISDRFSGSKSGNTASLTISGLQADDEADYYCSSYTRSSTWVFGGGTQLTVLG
notes: Fully human antibody from a phage scFv library, expressed as IgG1 with a lambda light chain; HC and LC are the entries without signal peptide; also called SG25Ab-9 IgG1; SGAb25-9
binds: [1] | recombinant human CD25 [2] | [3] | recombinant human CD25 [4] | [5] | recombinant human CD25 [6] | recombinant human CD25 [7] | recombinant human CD25 [8] | [9] | recombinant human CD25 [10] | [11]

B2: SG25Ab-9 variant YH99A (antibody, V domains shown)
VH: B1 VH with Y103A
VL: B1 VL
notes: Kabat-type numbering, not linear
binds: [12] | [13]

B3: detuned CD25 antibody SG25Ab-9 YH98A (antibody, human IgG1, lambda, V domains shown)
VH: B1 VH with Y102A
VL: B1 VL
notes: IgG1; Tyr to Ala in CDR-H3 (YH98A); also called SGAb25-9 YH98A
binds: [14] | [15] | [12] | [16] | [13] | [17] | [18]

B4: CD25 antibody SG25Ab-4 (antibody, human IgG1, lambda, V domains shown)
VH: EVQLVQSGAEVKKPGESLKISCKGPEYSFNRYWIAWVRQRPGKGLEWMGIIYPGDSDARYSPTFEGHVTLSADMSLTTAYLQWSSLRASDTAMYYCARLGSYYAFDIWGKGTMVTVSS
VL: QSALTQPASVSGSPGQSITIFCTGTSSDVGGYNYVSWYQQHPGKAPKLMIYDVSKRPSGVSNRFSGSKSGNTASLTISGLQAEDEADYYCSSYTSSSTWVFGGGTQLTVLS
notes: IgG1 format; also called SGAb25-4
binds: [19] | [11]
